PubChem BioAssay AID504804 – Drosophila RNAi Screening Center – 2011

Purpose: 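Knock-downs shielding fly cells from apoptosis caused by DNA damage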 (primary screen)
Cells: Drosophila Kc cells
Reagent: long dsRNA against Drosophila genes, 0.5 µg dsRNA per well
Time to read-out: 96 h (48 h knock-down, then 48 h drug)
Conditions: doxorubicin 5 µg/ml for 48 h, added 48 h after dsRNA
Measured: 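Viability measured as cellular ATP by luminescence after 48 h knock-down then 48 h doxorubicin at 5 µg/ml; unnormalised plate counts for each replicate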
Direction: raw ATP luminescence: higher = more viable cells, protection from doxorubicin
Call rule: 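z-score of 2 or more over plate mean in both duplicates, retained only when retests and separate dsRNAs confirm the protection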
The deposit covers about 19,000 reagents; shown is an unselected part of those that have a named target and a result. Over the whole deposit, 47 (0.25%) were called active. 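Signals are raw, not normalised; exact z-scores behind calls not deposited; actives needed confirmation, so some wells reaching 2 SD are inactive.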 Entries without a mark were called inactive. Reagents against one gene are numbered here. Names joined by + are all predicted targets of the reagent.

For SkpF + CG5357 (retired record), the entry reads raw ATP luminescence, replicate 1 = 58753; raw ATP luminescence, replicate 2 = 51697.
Bre1 showed raw ATP luminescence, replicate 1 = 54483; raw ATP luminescence, replicate 2 = 73660.
With knock-down of ko (knockout) the results were raw ATP luminescence, replicate 1 = 72813; raw ATP luminescence, replicate 2 = 58247.
Against CG7544, the values are raw ATP luminescence, replicate 1 = 2.22e5; raw ATP luminescence, replicate 2 = 2.06e5.
CG14591 gave raw ATP luminescence, replicate 1 = 52187; raw ATP luminescence, replicate 2 = 43860.
For Ide (Insulin degrading metalloproteinase) the deposit lists raw ATP luminescence, replicate 1 = 25347; raw ATP luminescence, replicate 2 = 17500.
After knock-down of Kr-h1 (Kruppel homolog 1) #1 the results were raw ATP luminescence, replicate 1 = 2.44e5; raw ATP luminescence, replicate 2 = 2.51e5.
After knock-down of Kr-h1 (Kruppel homolog 1) #2, the record shows raw ATP luminescence, replicate 1 = 78310; raw ATP luminescence, replicate 2 = 44173.
Against Ugt49B1 (UDP-glycosyltransferase family 49 member B1) the deposit lists raw ATP luminescence, replicate 1 = 46930; raw ATP luminescence, replicate 2 = 43417.
Silencing of CG33263 gave: raw ATP luminescence, replicate 1 = 56697; raw ATP luminescence, replicate 2 = 74163.
For lov (jim lovell) #1, the entry reads raw ATP luminescence, replicate 1 = 36163; raw ATP luminescence, replicate 2 = 49650.
After knock-down of lov (jim lovell) #2 the results were raw ATP luminescence, replicate 1 = 47650; raw ATP luminescence, replicate 2 = 54050.

2 consecutive reagents from above, quoted:
Kr-h1 (Kruppel homolog 1) #1 → raw ATP luminescence, replicate 1: 2.44e5; raw ATP luminescence, replicate 2: 2.51e5
Kr-h1 (Kruppel homolog 1) #2 → raw ATP luminescence, replicate 1: 78310; raw ATP luminescence, replicate 2: 44173

Additional reagents follow:
Prx1 (Peroxiredoxin 1) scored raw ATP luminescence, replicate 1 = 62477; raw ATP luminescence, replicate 2 = 51797.
Silencing of Su(var)2-HP2 resulted in: raw ATP luminescence, replicate 1 = 59837; raw ATP luminescence, replicate 2 = 44443.
For Or67a (Odorant receptor 67a) the deposit lists raw ATP luminescence, replicate 1 = 1.24e5; raw ATP luminescence, replicate 2 = 98297.
Against CG9733, the entry reads raw ATP luminescence, replicate 1 = 36160; raw ATP luminescence, replicate 2 = 45880.
For Usp30 (Ubiquitin specific protease 30) the deposit lists raw ATP luminescence, replicate 1 = 54050; raw ATP luminescence, replicate 2 = 51180.
For CG1227, the values are raw ATP luminescence, replicate 1 = 47760; raw ATP luminescence, replicate 2 = 24007.
For Pgm1 (Phosphoglucose mutase 1), the values are raw ATP luminescence, replicate 1 = 20203; raw ATP luminescence, replicate 2 = 21860.
After knock-down of Sardh (Sarcosine dehydrogenase), the screen gave raw ATP luminescence, replicate 1 = 55307; raw ATP luminescence, replicate 2 = 82887.
Knock-down of CG13991 resulted in: raw ATP luminescence, replicate 1 = 24177; raw ATP luminescence, replicate 2 = 27637.
Knock-down of CG13558 came out at: raw ATP luminescence, replicate 1 = 53037; raw ATP luminescence, replicate 2 = 52157.
For CG13733 the deposit lists raw ATP luminescence, replicate 1 = 67620; raw ATP luminescence, replicate 2 = 49810.
Against bond (james bond) the deposit lists raw ATP luminescence, replicate 1 = 50677; raw ATP luminescence, replicate 2 = 53513.
With knock-down of CG13937, the screen gave raw ATP luminescence, replicate 1 = 1.97e5; raw ATP luminescence, replicate 2 = 1.97e5.
Jon99Fii + Jon99Cii + Jon99Ciii + 1 more gave raw ATP luminescence, replicate 1 = 48030; raw ATP luminescence, replicate 2 = 57880.
After knock-down of CG6701 the results were raw ATP luminescence, replicate 1 = 78250; raw ATP luminescence, replicate 2 = 65157.
CG12825 gave raw ATP luminescence, replicate 1 = 51120; raw ATP luminescence, replicate 2 = 1.00e5.
